PubChem BioAssay AID1508597 – Cure First – 2020
This is an unselected part of the about 2,100 reagents, in one setting of the screen. 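Calls flag viability under 80% in either arm, not effects specific to rucaparib; the reference for percent is not stated.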 Unmarked entries are inactive. Some reagents were tested in more than one well and are listed for each. Not given: the 100% reference.

Purpose: 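Knock-downs altering ovarian cancer cell survival with or without PARP inhibitor rucaparib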 (primary screen)
System: human ovarian carcinoma lines grown from tumours: OCI-P5x (papillary serous) and OCI-C5x (clear cell)
Reagents: siRNA pool against human genes, 1.25 pmol siRNA per well
Timing: 72 h or 96 h, depending on the cell culture
Challenge: rucaparib 20 µM (about IC30) or vehicle, present until read-out
Rucaparib or vehicle: Vehicle
Cell line: OCI-P5x (serous)
Measurement: 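ATP luminescence measured at 72 or 96 h according to the culture, then normalised and expressed as percent viability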
Direction: viability, normalised: higher = more viable cells remaining
Call rule: 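a well counts as a hit if its normalised viability is under 80 percent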
Meaning of the calls: active = viability under 80%; inactive = viability 80% or more

| Target gene | technical replicate | viability, normalised (%) |
| --- | --- | --- |
| PARP2 (poly(ADP-ribose) polymerase 2) | 1 | 57.8 (active) |
| PARP2 (poly(ADP-ribose) polymerase 2) | 1 | 62.5 (active) |
| PARP2 (poly(ADP-ribose) polymerase 2) | 2 | 83.4 |
| PARP2 (poly(ADP-ribose) polymerase 2) | 2 | 46 (active) |
| PARP2 (poly(ADP-ribose) polymerase 2) | 3 | 75.5 (active) |
| PARP2 (poly(ADP-ribose) polymerase 2) | 3 | 73.6 (active) |
| PIM2 (Pim-2 proto-oncogene, serine/threonine kinase) | 1 | 80.1 |
| PIM2 (Pim-2 proto-oncogene, serine/threonine kinase) | 2 | 63.6 (active) |
| PIM2 (Pim-2 proto-oncogene, serine/threonine kinase) | 3 | 61.8 (active) |

Reagents above called active:
| Target gene | technical replicate | viability, normalised (%) |
| --- | --- | --- |
| PARP2 (poly(ADP-ribose) polymerase 2) | 1 | 57.8 (active) |
| PARP2 (poly(ADP-ribose) polymerase 2) | 1 | 62.5 (active) |
| PARP2 (poly(ADP-ribose) polymerase 2) | 2 | 46 (active) |
| PARP2 (poly(ADP-ribose) polymerase 2) | 3 | 75.5 (active) |
| PARP2 (poly(ADP-ribose) polymerase 2) | 3 | 73.6 (active) |
| PIM2 (Pim-2 proto-oncogene, serine/threonine kinase) | 2 | 63.6 (active) |
| PIM2 (Pim-2 proto-oncogene, serine/threonine kinase) | 3 | 61.8 (active) |

Next records follow.
| Target gene | technical replicate | viability, normalised (%) |
| --- | --- | --- |
| DDX25 (DEAD-box helicase 25) | 1 | 56.9 (active) |
| DDX25 (DEAD-box helicase 25) | 2 | 51.4 (active) |
| DDX25 (DEAD-box helicase 25) | 3 | 65.5 (active) |
| EEF2K (eukaryotic elongation factor 2 kinase) | 1 | 51.8 (active) |
| EEF2K (eukaryotic elongation factor 2 kinase) | 2 | 75.6 (active) |
| EEF2K (eukaryotic elongation factor 2 kinase) | 3 | 43.5 (active) |
| BBS7 (Bardet-Biedl syndrome 7) | 1 | 58.9 (active) |
| BBS7 (Bardet-Biedl syndrome 7) | 2 | 68.3 (active) |
| BBS7 (Bardet-Biedl syndrome 7) | 3 | 80.2 |
| USP1 (ubiquitin specific peptidase 1) | 1 | 47.6 (active) |
| USP1 (ubiquitin specific peptidase 1) | 2 | 54.5 (active) |
| USP1 (ubiquitin specific peptidase 1) | 3 | 38.2 (active) |
| VPS72 (vacuolar protein sorting 72 homolog) | 1 | 61.9 (active) |
| VPS72 (vacuolar protein sorting 72 homolog) | 2 | 80 |
| VPS72 (vacuolar protein sorting 72 homolog) | 3 | 68.6 (active) |
